Drug screen on melanoma cell lines: apoptosis marker

Source: doi:10.1371/journal.pone.0140310, primary screening data, rounded.

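Human melanoma cells were exposed to two drugs together for 72 h in 1,536-well plates and read by automated microscopy after fixing and staining. Values are the share of nuclei positive for cleaved PARP as a percentage of the same share in the DMSO control: 100 is the control level, higher means more apoptosis. Concentrations were fixed for each drug; these are the higher of two levels. These are primary screening values without error estimates. Basal and induced levels differ widely between cell lines.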 Only some of the drugs and lines screened are listed, without regard to their results. A dash means that no value is listed here.

First drug in all entries: etoposide, 0.1 µM, COc1cc([C@@H]2c3cc4c(cc3[C@@H](O[C@@H]3O[C@@H]5CO[C@@H](C)O[C@H]5[C@H](O)[C@H]3O)[C@H]3COC(=O)[C@H]23)OCO4)cc(OC)c1O

Drug key:
GW441756 (2 µM): Cn1cc(/C=C2\C(=O)Nc3cccnc32)c2ccccc21
BI-D1870 (1 µM): CC(C)CCN1c2nc(Nc3cc(F)c(O)c(F)c3)ncc2N(C)C(=O)C1C (configuration not stated)
PD173074 (0.5 µM): CCN(CC)CCCCNc1ncc2cc(-c3cc(OC)cc(OC)c3)c(NC(=O)NC(C)(C)C)nc2n1
AS-252424 (5 µM): O=C1NC(=O)/C(=C/c2ccc(-c3ccc(F)cc3O)o2)S1
erlotinib (4 µM): C#Cc1cccc(Nc2ncnc3cc(OCCOC)c(OCCOC)cc23)c1
OSI-906 (2 µM): C[C@]1(O)C[C@@H](c2nc(-c3ccc4ccc(-c5ccccc5)nc4c3)c3c(N)nccn32)C1
dorsomorphin (2 µM): c1cc(-c2cnn3cc(-c4ccc(OCCN5CCCCC5)cc4)cnc23)ccn1
embelin (6 µM): CCCCCCCCCCCC1=C(O)C(=O)C=C(O)C1=O
cisplatin (8 µM): N.N.[Cl][Pt][Cl]
GW0742 (10 µM): Cc1cc(SCc2sc(-c3ccc(C(F)(F)F)c(F)c3)nc2C)ccc1OCC(=O)O
U73122 (2 µM): COc1ccc2c(c1)CCC1C2CCC2(C)C(NCCCCCCN3C(=O)C=CC3=O)CCC12 (configuration not stated)
lestaurtinib (0.02 µM): C[C@]12O[C@H](C[C@]1(O)CO)n1c3ccccc3c3c4c(c5c6ccccc6n2c5c31)CNC4=O
perifosine (2 µM): CCCCCCCCCCCCCCCCCCOP(=O)([O-])OC1CC[N+](C)(C)CC1
MK-2206 (2 µM): NC1(c2ccc(-c3nc4ccn5c(=O)[nH]nc5c4cc3-c3ccccc3)cc2)CCC1
ENMD-2076 (0.2 µM): Cc1cc(Nc2cc(N3CCN(C)CC3)nc(/C=C/c3ccccc3)n2)n[nH]1
XAV939 (10 µM): Oc1nc(-c2ccc(C(F)(F)F)cc2)nc2c1CSCC2
nilotinib (1 µM): Cc1cn(-c2cc(NC(=O)c3ccc(C)c(Nc4nccc(-c5cccnc5)n4)c3)cc(C(F)(F)F)c2)cn1
LFM-A13 (10 µM): C/C(O)=C(\C#N)C(=O)Nc1cc(Br)ccc1Br
KU-55933 (5 µM): O=c1cc(-c2cccc3c2Sc2ccccc2S3)oc(N2CCOCC2)c1
GSK650394 (0.8 µM): O=C(O)c1ccc(-c2c[nH]c3ncc(-c4ccccc4)cc23)cc1C1CCCC1
SNS-032 (0.05 µM): CC(C)(C)c1cnc(CSc2cnc(NC(=O)C3CCNCC3)s2)o1
CP-690550 (5 µM): C[C@@H]1CCN(C(=O)CC#N)C[C@@H]1N(C)c1ncnc2[nH]ccc12
SU6656 (2 µM): CN(C)S(=O)(=O)c1ccc2c(c1)/C(=C/c1cc3c([nH]1)CCCC3)C(=O)N2
FK866 (0.05 µM): O=C(/C=C/c1cccnc1)NCCCCC1CCN(C(=O)c2ccccc2)CC1
NVP-TAE684 (0.4 µM): COc1cc(N2CCC(N3CCN(C)CC3)CC2)ccc1Nc1ncc(Cl)c(Nc2ccccc2S(=O)(=O)C(C)C)n1
nutlin-3 (0.5 µM): COc1ccc(C2=N[C@@H](c3ccc(Cl)cc3)[C@@H](c3ccc(Cl)cc3)N2C(=O)N2CCNC(=O)C2)c(OC(C)C)c1
T0901317 (7 µM): O=S(=O)(c1ccccc1)N(CC(F)(F)F)c1ccc(C(O)(C(F)(F)F)C(F)(F)F)cc1
L-779450 (1 µM): Oc1cc(-c2nc(-c3ccccc3)[nH]c2-c2ccncc2)ccc1Cl
NVP-BEZ235 (0.02 µM): Cn1c(=O)n(-c2ccc(C(C)(C)C#N)cc2)c2c3cc(-c4cnc5ccccc5c4)ccc3ncc21
VX-702 (2 µM): NC(=O)c1ccc(N(C(N)=O)c2c(F)cccc2F)nc1-c1ccc(F)cc1F

Second drug,WM115,A2058,COLO 792,MZ2-MEL,SK-MEL-28
SU6656,190,191,145,196,142
AS-252424,210,178,88.3,208,120
GSK650394,62.7,153,67.4,134,64.6
GW441756,110,120,80.3,45.4,39.3
erlotinib,347,257,379,204,128
KU-55933,58.6,174,84.8,-,59.4
VX-702,127,164,212,84.8,38.8
cisplatin,453,132,69.3,245,40.6
GW0742,66.5,134,135,79.1,142
OSI-906,254,92.3,85.9,161,126
embelin,131,186,70.8,140,63.9
SNS-032,299,147,68.0,306,143
BI-D1870,207,170,79.2,52.2,207
U73122,129,122,39.9,80.8,136
nutlin-3,173,168,63.7,202,148
lestaurtinib,84.1,206,96.0,161,96.3
perifosine,72.3,160,64.1,141,115
LFM-A13,112,173,63.1,74.3,75.0
MK-2206,168,97.7,140,132,117
FK866,89.9,149,480,-,67.2
CP-690550,200,99.0,149,122,311
NVP-TAE684,40.1,270,95.2,188,93.7
T0901317,164,139,109,69.5,67.9
dorsomorphin,112,328,80.9,79.6,125
ENMD-2076,306,104,60.6,-,81.4
XAV939,101,169,128,30.9,321
L-779450,87.7,170,121,219,105
NVP-BEZ235,241,136,108,68.1,135
PD173074,222,182,42.7,45.0,56.5
nilotinib,140,165,79.5,-,101

Once more, the final 2:

Second drug	WM115	A2058	COLO 792	MZ2-MEL	SK-MEL-28
PD173074	222	182	42.7	45.0	56.5
nilotinib	140	165	79.5	-	101